Mtb growth Cornell: 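Whole-cell assay for inhibitors of Mycobacterium tuberculosis growth, labelled Cornell in the record; the read-out is not stated. The concentration is filed as 10 mM, unlikely as a test dose, so the dose is not known. Higher means stronger inhibition (inferred from two other growth screens of the library). Of about 53,000 compounds tested this way, about 900 (1.7%) reached 50% or more in at least one test.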
Mtb heat-shock: 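Assay on Mycobacterium tuberculosis, filed only as a heat shock assay from Cornell; the read-out is not stated. The concentration is filed as 10 mM, unlikely as a test dose, so the dose is not known. Higher reads as stronger inhibition (inferred: compounds with an IC50 in retests scored well above the rest). Of about 69,000 compounds tested this way, about 930 (1.4%) reached 50% or more in at least one test.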

The filed quantity is “Percent Effect” (%). How 0% and 100% were set is not recorded. Most values in the screen are low, and negative values occur. Compounds were drawn at random from those tested, without regard to their results. A dash means the value is not listed here; it may have been measured.

| Compound | Mtb growth Cornell | Mtb heat-shock |
|---|---|---|
| `CN(C)C(=O)C1CN(Cc2c[nH]cn2)CCN(C2CCOCC2)C1` (stereo not given) | 7.495 | -12.51 |
| `COCc1cc(O)nc(C2CCCN(Cc3ccc(F)cc3)C2)n1` (stereo not given) | - | -15.72 |
| `CNC(=O)c1nnc2ccc(N3CCOCC3)cc2n1` | - | -1.494 |
| `Cc1cc(C)n(CC2CN(CC(=O)NCc3ccccn3)CCO2)n1` (stereo not given) | -60.45 | 1.574 |
| `Cl.c1cc(OCc2ccc3c(c2)OCO3)ccc1CNC1CC1` | -30.99 | -1.646 |
| `CC(NCc1c(C(C)C)nn(C)c1N1CCOCC1)C(N)=O` (stereo not given) | -10.2 | 19.08 |
| `CO[C@@H]1CCN(C(=O)Cc2cccc(F)c2)[C@H]1Cc1cccnc1.O=C(O)C(F)(F)F` | -8.358 | 3.336 |
| `O=C(O)C(F)(F)F.O=C(O)C(F)(F)F.O=C(O)C(F)(F)F.[H][C@@]12OCCC[C@]1([H])N(Cc1nccn1C)C[C@@H]2N1CCOCC1` | 19.84 | -10.45 |
| `CCCn1ncc(C2CC(=O)NCc3nc4sc(C)cn4c32)c1C` (stereo not given) | -9.384 | -22.42 |
| `Cc1cnn(C(C)C2CC2)c1NC(=O)c1cnccn1` (stereo not given) | -32.07 | 0.4426 |
| `CC(O)CN1CC(C)(C)CN(C(=O)CCc2ccccc2)CC1=O` (stereo not given) | 4.925 | 50.7 |
| `CC[C@@H]1N(Cc2ccc(F)cc2)CCC[C@]12CCC(=O)N2C.O=C(O)C(F)(F)F` | 13.01 | 0.1041 |
| `COc1cccc(S(=O)(=O)Cc2noc(CC(C)C)n2)c1` | - | 25.29 |
| `CCN(CCC(=O)OC)C(=O)c1cc(F)cc2[nH]cnc12` | -4.697 | -13.57 |
| `CCN1CC(COC(C)(C)C)Oc2ccncc2S1(=O)=O` (stereo not given) | 5.198 | -9.388 |
| `COCC(=O)N1CCC(O)(CN2CCN(c3ccccc3)CC2)C1` (stereo not given) | -14.47 | 5.837 |
| `Cc1nc(CN2CCN(CC3CCOC3)Cc3cccnc32)cs1.O=C(O)C(F)(F)F.O=C(O)C(F)(F)F.O=C(O)C(F)(F)F` (stereo not given) | -2.365 | 10.29 |
| `Cc1nnc(CN2CCC3(CCC(=O)N([C@H]4CC[C@H](O)CC4)C3)CC2)o1` | -16.28 | 10.19 |
| `Cc1nc(CN(C)C(=O)CNC(=O)c2ccc(C#N)cc2)cs1` | - | -10.63 |
| `COC(=O)c1ccoc1CN(C)CC(=O)NC1CC1` | 9.025 | 18.43 |
| `O=C(O)C(F)(F)F.[H][C@@]12CN(CC3CCCC3)CCO[C@]1([H])CN(C(=O)c1cnc(C)cn1)C2` | -8.59 | -9.907 |
| `COCC[C@]1(O)CCN(C(=O)C2CCN(C3CCCC3)CC2)C[C@H]1C` | 11.71 | 1.456 |
| `CC(O)CC(C)(C)CNC(=O)NCc1cccc(-n2ccnc2)c1` (stereo not given) | -14.32 | -5.144 |
| `CCn1cc(-c2cc(-c3cc(CC(=O)O)cs3)nc(N)c2C#N)c(C)n1` | -24.66 | -13.13 |
| `CNS(=O)(=O)CC(=O)N(Cc1c(F)cccc1F)C1CCCC1` | -15.91 | 7.479 |
| `CSCC(=O)NCc1cc(Br)ccc1OC(F)F` | -26.06 | -22.61 |
| `CS(=O)(=O)CCCC(=O)Nc1cc(-c2cccc(F)c2F)n[nH]1` | -2.681 | -12.36 |
| `COCCNC(=O)c1ccc(C)c(-n2cccc2)c1` | -2.788 | 2.869 |
| `CC(=O)N1CCC(c2cc(C(F)(F)F)n3ccnc3n2)CC1` | - | -45.51 |
| `Cc1noc(C)c1CCC(=O)N1CCCN(C)CC1` | - | -19.4 |
| `CCn1ccnc1CN1CCC(=O)N(CC2CC2)C(C(C)C)C1` (stereo not given) | -66.79 | -17.83 |
| `CC/C=C(/C)C(=O)NS(=O)(=O)c1ccc(C#N)cc1C(F)(F)F` | -7.278 | -18.27 |
| `Cc1nc(C)n(CC2CN(Cc3ccccc3C#N)CCO2)n1` (stereo not given) | -18.72 | -15.22 |
| `COC(=O)c1ccoc1CN(C)CC(=O)N(C)C` | - | -30.64 |
| `CC(=O)c1cc(C(=O)N2CCC3(CC2)Nc2ccccc2NC3=O)cs1` | -10.73 | -10.63 |
| `Cc1nc(CN2CCC3(C2)CN(C(=O)c2ccc[nH]2)C3)cs1` | 9.497 | 13.43 |
| `CCn1cc(CN2CCC(O)(Cn3nc(C)ccc3=O)CC2)cn1` | 18.25 | 6.287 |
| `COc1cc(NC(=O)N(C)CCC2CC2)ncn1` | -16.14 | -24.75 |
| `Cn1nc(C2CCCN2)c2c(C(=O)NC3CC3)cc(C3CC3)nc21` (stereo not given) | - | -2.373 |
| `COc1ccc(C(=O)C2CCCN(Cc3ccncc3)C2)cc1OC` (stereo not given) | 23.39 | 12.59 |
| `CN(C)c1ccc(-c2noc([C@@H]3CCCN3)n2)cn1` | - | -33.92 |
| `CN(Cc1cnccn1)c1cncc(Br)c1` | -3.277 | -7.38 |
| `CC(CC(=O)NCCCn1cccn1)c1cccnc1` (stereo not given) | -31.27 | 9.276 |
| `COCCN(C)CCN1CC2(CCN(C(=O)C3CCOC3)CC2)OC1=O` (stereo not given) | -21.8 | -8.276 |
| `CSCc1ccc(C(=O)NCCCNc2ccc(C(F)(F)F)cn2)cc1` | - | 8.062 |
| `CC(C)CC(=O)Nc1ccccc1Oc1ccsc1C(=O)O` | 8.037 | 19.09 |
| `CC(=O)Nc1nc(-c2ccccc2)c[nH]1` | -0.5777 | -15.03 |
| `Cc1nc(-c2ccsc2)ccc1C(=O)NCCCN1CCOCC1` | - | -15.73 |
| `Clc1cccnc1N1CCC(NCc2cccc3cn[nH]c23)C1` (stereo not given) | - | -0.328 |
| `CCC1c2ccccc2CCN1CCCS(C)(=O)=O` (stereo not given) | -4.823 | -19.29 |
| `Cc1ccc(C2CN(Cc3cnc(-c4cccnc4)s3)CCO2)o1` (stereo not given) | 25.17 | 4.025 |
| `Cn1cc(C2CCCN2C(=O)CCCc2ccccn2)cn1` (stereo not given) | - | 0.2809 |
| `CCc1cc(CN(C)C(=O)c2cnn[nH]2)on1` | -34.98 | -25.77 |
| `Cc1nc(N(C)C)ncc1C(=O)N[C@H]1Cc2ccccc2[C@@H]1N` | -21.7 | 5.533 |
| `COCC1c2nnn(CC3CC3)c2CCN1C(=O)Cc1cccs1` (stereo not given) | 9.128 | 5.834 |
| `CC(NC(=O)CCCc1nc(C(C)(C)C)no1)c1nnc2n1CCC2` (stereo not given) | - | 12.77 |
| `CCc1nnc2n1CCN(Cc1ccc(C(=O)N3CCCC3)cc1)C2` | 24.6 | 5.514 |
| `COc1ccc(-c2nccnc2C2CCN(C(C)=O)CC2)cc1` | -0.4368 | -21.01 |
| `CCN(Cc1c(F)cccc1F)Cn1nc(C)c2c(C)onc2c1=O` | -26.53 | -4.171 |
| `CC(C)CS(=O)(=O)NC(=O)c1ccc2c(c1)ncn2C` | 21.14 | -3.058 |
| `C=C(C)CN1CCN(Cc2cnc(-c3ccc(OC)cc3)nc2)CC1.O=C(O)CC(O)(CC(=O)O)C(=O)O` | 11.98 | -14.08 |
| `O=C(O)C(F)(F)F.[H][C@@]12CN(Cc3ccc(F)cc3)C[C@]1([H])C(=O)N(c1cncnc1)C2` | 13.2 | -22.15 |
| `CC(=O)Cn1cc(C#N)c(=O)c2cc(Br)ccc21` | 11.34 | 11.25 |
| `CCSCc1csc(-c2ccc(S(C)(=O)=O)cc2)n1` | 11.29 | 20.49 |
| `O=C(O)C(F)(F)F.[H][C@@]12CN(Cc3cncn3C)C[C@]1([H])OCCN2c1ncccn1` | 23.32 | -3.981 |
| `Oc1cc(-c2nccs2)nc(C2CCN(Cc3cccs3)CC2)n1` | 13.8 | 15.4 |
| `Cc1noc(C)c1CNC(=O)N1CCC(CN2CCC(C)CC2)CC1` | -21.32 | 8.837 |
| `Cc1nc(N2CCC(CN3CCCC3)CC2)c2cnn(C)c2n1` | -16.71 | -0.4755 |
| `CC(C)c1nc2c(n1C)CCN(Cc1nc(-c3cccs3)no1)C2` | 20.68 | 26.13 |
| `COc1ccc(C2CC(=O)c3c(O)cc(O)cc3O2)cc1O` (stereo not given) | - | 23.28 |
| `Cc1ccc(NC2CCN(C(=O)Cc3cccc(F)c3)CC2)nn1` | 1.354 | 13.96 |
| `CC(=O)NCCC(=O)NCCCOc1c(C)cccc1C` | -1.038 | 24.41 |
| `Cn1cc(NC(=O)c2ccccn2)cc(Br)c1=O` | 12.76 | -0.3333 |
| `Cn1cc(C2(C)CN(c3ncccc3C#N)CCO2)cn1` (stereo not given) | 2.694 | -20.89 |
| `CN(CC(=O)NC1(C)CCS(=O)(=O)C1)Cc1ccc(Br)cc1` (stereo not given) | -6.576 | -28.97 |
| `O=C1CC2(CCSC2)C(=O)N1CCCc1ccccc1` (stereo not given) | 36.31 | 12.88 |
| `Cc1cc(C2CCN(C(=O)c3cnn(C)c3)CC2)ccn1` | -5.117 | -4.194 |
| `Cc1ccsc1CN1CC2(CCN(C(=O)C3CC3)CC2)CC1C(=O)O` (stereo not given) | - | -3.942 |
| `Cc1nn(C)c(C)c1OCC(=O)NCC(O)c1ccccc1F` (stereo not given) | - | -21.42 |
| `Cc1nn(C)c2c(NCCCn3cccn3)nc(C(C)C)nc12` | - | -10.11 |
| `CCOc1nn(CC)cc1-c1nnc(SCc2cccnc2)n1C` | 35.35 | -7.482 |

Once more, the final 5:

| Compound | Mtb growth Cornell | Mtb heat-shock |
|---|---|---|
| `Cc1cc(C2CCN(C(=O)c3cnn(C)c3)CC2)ccn1` | -5.117 | -4.194 |
| `Cc1ccsc1CN1CC2(CCN(C(=O)C3CC3)CC2)CC1C(=O)O` (stereo not given) | - | -3.942 |
| `Cc1nn(C)c(C)c1OCC(=O)NCC(O)c1ccccc1F` (stereo not given) | - | -21.42 |
| `Cc1nn(C)c2c(NCCCn3cccn3)nc(C(C)C)nc12` | - | -10.11 |
| `CCOc1nn(CC)cc1-c1nnc(SCc2cccnc2)n1C` | 35.35 | -7.482 |

The values are deposited in ChEMBL (CHEMBL3988442, “University of Dundee, Small-Polar-MMV Screening Library” (2021)).